This data set in a line: Foaming test, foam height. In kind it is physicochemical.

This is an account of results in EP2277860B1, “Compositions comprising sulfonated estolides and alkyl ester sulfonates, methods of making them, and compositions and processes employing them” (STEPAN COMPANY, priority 2009, dated 2011).

For the substance “linear alkylbenzene sulfonic acid, sodium salt [NaLAS]”, where the note is “Chicago Tap Water”, the “Height (mL) after 5 seconds” value is reported as 500+ mL and the “Height (mL) after 5 minutes” value is listed as 500+ mL. Where the note is “w/Castor Oil”, the “Height (mL) after 5 seconds” value is reported as 200 mL and the “Height (mL) after 5 minutes” value turned out to be 200 mL.

With C16 methyl ester sulfonate [MES C16], the “Height (mL) after 5 seconds” value is recorded as 220 mL (Chicago Tap Water) and 157.5 mL (w/Castor Oil). The “Height (mL) after 5 minutes” value runs as follows: (Chicago Tap Water) 142.5 mL; (w/Castor Oil) 135 mL.
